The assay deals with HEK293A TEAD-LUC reporter. Briefly: TEAD-luciferase reporter activity (YAP activation), robust Z score vs plate; higher = stronger YAP/TEAD activation. The following applies: 24 h. A general note: In a reporter assay the amount or activity of a reporter protein is the signal.

Counter-ions that a name gives are not always drawn. Some of the results follow. This data set is noisy: repeats of one test often differ as much as different tests do.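 In a drug-repurposing library screen, luminescence reads luciferase driven by eight TEAD-binding elements, stably integrated into human kidney-derived cells. Compounds scoring over five robust Z scores above the plate mean are called hits.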

Take `N=C(N)NCCC[C@H](NC(=O)c1ccc2ccccc2c1O)C(=O)N1CCC[C@H]1C(N)=O`: the TEAD-luciferase reporter activity is, setting by setting: (compound concentration: 200 nM) inactive: -1.17; (compound concentration: 2 uM) inactive: -0.617; (compound concentration: 10 uM) inactive: 2.83.
In the case of `CC(C)(C)C(O)/C=C/c1ccc2c(c1)OCO2` (configuration not stated) [stiripentol], for the setting “compound concentration: 2 uM”, the TEAD-luciferase reporter activity is inactive: -0.838.
On to `CC(C)(C)C(O)/C=C/c1ccc2c(c1)OCO2` (configuration not stated) [Stiripentol], for which the TEAD-luciferase reporter activity by setting is: (compound concentration: 200 nM) inactive: 0.635; (compound concentration: 10 uM) inactive: 0.739.
As to `CCc1ccc(Cc2ccc3c(c2)[C@]2(OC3)O[C@H](CO)[C@@H](O)[C@H](O)[C@H]2O)cc1` [Tofogliflozin hydrate], the TEAD-luciferase reporter activity reads like this: (compound concentration: 200 nM) inactive: 0.381; (compound concentration: 2 uM) inactive: -0.596; (compound concentration: 10 uM) inactive: -0.704.
Consider `O=c1[nH]c2c(c3nc(-c4ccccc4F)cn13)CN(Cc1cccnc1)CC2`, for which the TEAD-luciferase reporter activity is, setting by setting: (compound concentration: 200 nM) inactive: 0.0463; (compound concentration: 10 uM) inactive: -0.295.
With `C=CCSC[C@H](N)C(=O)O`, the TEAD-luciferase reporter activity was inactive: -0.401 (compound concentration: 200 nM), inactive: 1.07 (compound concentration: 2 uM) and inactive: 1.32 (compound concentration: 10 uM).
As for `C/C(=N/C#N)NC1=CC(C)(C)Oc2ccc(C#N)cc21`, the TEAD-luciferase reporter activity runs as follows: (compound concentration: 200 nM) inactive: -1.34; (compound concentration: 2 uM) inactive: -0.0483; (compound concentration: 10 uM) inactive: -1.94.
For the compound `O=C(O)C1CN(CCCP(=O)(O)O)CCN1` (racemic), the TEAD-luciferase reporter activity (compound concentration: 2 uM) was inactive: 1.23.
In the case of `CN(N=O)C(=O)NC(C=O)C(O)C(O)C(O)CO` (configuration not stated) [streptozocin], the TEAD-luciferase reporter activity was inactive: -1.98 (compound concentration: 200 nM), inactive: 1.8 (compound concentration: 2 uM) and inactive: 0.493 (compound concentration: 10 uM).
On to `C=C(NC(=O)Cc1ccc(OC)cc1)C(=O)O`, for which the TEAD-luciferase reporter activity was inactive: 0.191 (compound concentration: 200 nM), inactive: 0.116 (compound concentration: 2 uM) and inactive: 1.78 (compound concentration: 10 uM).
As for `COc1cc(/C=C\c2ccc(OC)c(OP(=O)([O-])[O-])c2OP(=O)([O-])[O-])cc(OC)c1OC` [combretastatin A-1 diphosphate], the TEAD-luciferase reporter activity was inactive: -1.14 (compound concentration: 200 nM) and inactive: 0.4 (compound concentration: 10 uM).
In the case of `CC(C)NC(=O)Cn1c(-c2cccc(Cl)c2)nc2ccc(OCCCN3CCCCC3)cc2c1=O`, the TEAD-luciferase reporter activity runs as follows: (compound concentration: 200 nM) inactive: 0.531; (compound concentration: 2 uM) inactive: 0.36; (compound concentration: 10 uM) inactive: 2.67.
With `CN1CCN(c2cc3c(cc2F)c(=O)c(C(=O)O)cn3-c2ccc(F)cc2)CC1` [Difloxacin hydrochloride], the TEAD-luciferase reporter activity was inactive: -0.249 (compound concentration: 200 nM), inactive: -0.0999 (compound concentration: 2 uM) and inactive: 1.74 (compound concentration: 10 uM).
As to `NC(=O)[C@H]1CN(CCCCC(c2ccc(F)cc2)c2ccc(F)cc2)CCN1CC(=O)Nc1c(Cl)cc(N)cc1Cl`, the TEAD-luciferase reporter activity is, setting by setting: (compound concentration: 200 nM) inactive: -1.18; (compound concentration: 2 uM) inactive: -1.29; (compound concentration: 10 uM) inactive: 0.963.
On to `CC(C)(C)c1nnc([C@H]2O[C@@H](n3cnc4c(Nc5ccc(Cl)cc5F)ncnc43)[C@H](O)[C@@H]2O)o1`, for which the TEAD-luciferase reporter activity reads like this: (compound concentration: 200 nM) active: 7.84; (compound concentration: 2 uM) inactive: -0.811; (compound concentration: 10 uM) inactive: -0.327.
Regarding `CC(=O)O[C@]1(C(C)=O)CC[C@H]2[C@@H]3C[C@H](C)C4=CC(=O)C=C[C@]4(C)[C@@]3(F)[C@@H](O)C[C@@]21C` [Fluorometholone acetate], the TEAD-luciferase reporter activity (compound concentration: 200 nM) is inactive: 0.838, the TEAD-luciferase reporter activity (compound concentration: 2 uM) is inactive: -0.134 and the TEAD-luciferase reporter activity (compound concentration: 10 uM) is inactive: 2.17.
The like results for `O=C(Nc1ccc(OCc2ccccc2)cc1)C1CC(=O)N(c2ccc(F)cc2)C1` (configuration not stated) were, in that order, active: 5.24, inactive: -0.478 and inactive: 0.0692.
Consider `COc1cc(CN(C)CCN(C)CCC(c2ccc(F)cc2)c2ccc(F)cc2)cc(OC)c1OC`, for which the TEAD-luciferase reporter activity runs as follows: (compound concentration: 200 nM) inactive: -1.58; (compound concentration: 2 uM) inactive: -1.12; (compound concentration: 10 uM) inactive: 0.738.
The like results for `CC12C[C@H](O)[C@@]3(F)C(CCC4=CC(=O)C=CC43C)C1CC[C@]2(O)C(=O)CO` (some centres not stated) were, in that order, inactive: -1.05, inactive: -0.35 and inactive: 0.226.
With `CSCC[C@H](N=C(O)[C@@H]1CCCN1C(=O)CN=C(O)[C@H](CCCCN)N=C(O)[C@H](Cc1c[nH]cn1)N=C(O)C1CSSC[C@H](N)C(O)=NC(CCCN=C(N)N)C(=O)N2CCC[C@H]2C(O)=N[C@@H](CCCN=C(N)N)C(O)=NC(CC(C)C)C(O)=N1)C(=O)N1CCC[C@H]1C(O)=N[C@@H](Cc1ccccc1)C(=O)O` (some centres not stated), the TEAD-luciferase reporter activity by setting is: (compound concentration: 200 nM) inactive: -0.0978; (compound concentration: 10 uM) inactive: -0.0999.
On to `CCCCN(CCN(CC)CC)C(=O)c1cccc2ccccc12`, for which the TEAD-luciferase reporter activity is, setting by setting: (compound concentration: 200 nM) inactive: -0.0585; (compound concentration: 2 uM) inactive: -0.99; (compound concentration: 10 uM) inactive: 1.08.
The like results for `CC(C)C1NC(=O)C(CCCCN)NC(=O)C(CC2=NCc3ccccc32)NC(=O)C(Cc2ccc(O)cc2)NC(=O)C(NC(=O)C(N)Cc2ccc3ccccc3c2)CSSCC(C(=O)NC(C(N)=O)C(C)O)NC1=O` (configuration not stated) [lanreotide] were, in that order, inactive: -0.73, inactive: -0.316 and inactive: -0.215.
The like results for `NC(N)=NCCNS(=O)(=O)c1cccc2cnccc12` were, in that order, inactive: -0.813, inactive: -0.398 and inactive: -0.596.
Consider `Cc1c(C)c2c(c(C)c1O)CCC(C)(CC[P+](c1ccccc1)(c1ccccc1)c1ccccc1)O2` (configuration not stated), for which the TEAD-luciferase reporter activity is, setting by setting: (compound concentration: 200 nM) inactive: 0.114; (compound concentration: 2 uM) inactive: 0.372; (compound concentration: 10 uM) inactive: 0.0917.
`COc1cc([C@@H](O)[C@@H](CC2Cc3ccccc3C2)Cn2ccc(CCC(=O)O)c2)cc(OC)c1C`: the TEAD-luciferase reporter activity runs as follows: (compound concentration: 200 nM) inactive: -1.63; (compound concentration: 2 uM) inactive: -0.693; (compound concentration: 10 uM) inactive: -0.245.

Values taken from the supplement of paper PMC10735217.
